Some entries share one result that the patent states for a list of compounds.
System: Botrytis cinerea
Test: Activity against gray mold on bell-pepper leaves caused by Botrytis cinerea, protective application
Type: in vivo
Conditions: 63 ppm; bell-pepper cultivar Neusiedler Ideal Elite; inoculated the day after spraying; assessed visually after 5 days; untreated plants 75% infected

Cc1nc2ncnn2c(N2CCC(C)CC2)c1-c1c(F)cc(C(N)=O)cc1F [I-2, 5-methyl-6-(2,6-difluoro-4-aminocarbonylphenyl)-7-(4-methylpiperidinyl)-1,2,4-triazolo[1,5a]pyrimidine]
fungal infection on the leaves in %: not more than 30%

From US20070111889A1, “6-(Aminocarbonyl-phenyl)triazolopyrimidines, methods for the production thereof, use thereof for controlling harmful fungi, and substances containing the same” (BASF Aktiengesellschaft, priority 2003, published 2007)
